# This is one part of the list. Further columns of the screen follow, without active or inactive calls. The list favours compounds with an active or inconclusive main result. Words in brackets tell the shape of the fitted curve; partial curves, single points and poor fits give uncertain potencies.
# Experiment: qHTS Assay for Modulators of Lamin A Splicing
# Settings: HeLa LMNA splicing GFP/RFP minigene ratio, 48 h
# Outline: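 S3 HeLa cells stably expressing lamin A-EGFP splicing minigene plus DsRed2, 600 cells/well, 48 h compound exposure at 37C. Laser-scanning cytometry; analysed as GFP (500-530 nm)/RFP (575-640 nm) total intensity ratio; 0.5% DMSO vehicle.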
# [1] = measured here: GFP splicing reporter channel
# [2] = measured here: RFP viability control channel
Structure (SMILES),AC50 [1],AC50 [2]
Cc1ccc(OCC(=O)N2CCN(c3nnc(-c4ccc(C)cc4)c4ccccc34)CC2)cc1,"22.4 µM [falling, single point]","14.1 µM [falling, partial curve]"
COc1ccccc1NC(=O)C1CCCCN1S(=O)(=O)c1ccc(F)cc1 (centres undefined),"10 µM [rising, partial curve]","17.8 µM [rising, single point]"
CCc1cccc(C)c1NC(=O)COC(=O)Cc1ccsc1,"3.55 µM [falling, full curve, poor fit]","2.51 µM [falling, full curve, poor fit]"
Cc1ccc(-n2nc(C)cc2Nc2ncc(Cl)cc2Cl)cc1,–,"31.6 µM [rising, single point]"
O=C(NCCc1c[nH]c2ccccc12)[C@@H]1C[C@H]1[C@@H](NP(=O)(c1ccccc1)c1ccccc1)c1ccccc1,–,"11.2 µM [rising, partial curve]"
CC1Cc2ccccc2N1C(=O)c1cc2sccc2n1Cc1ccc(F)cc1 (centres undefined),–,"17.8 µM [rising, single point]"
CCOC(=O)c1ccc(NC(=S)N2CCN(CCN=CC3=C(O)CC(C)(C)CC3=O)CC2)cc1,"1.78 µM [falling, single point]","2.82 µM [falling, single point]"
CCn1cc(C(=O)O)c(=O)c2cc(F)c(N3CCN(C(=S)NC(=O)c4ccc(Br)cc4)CC3)cc21,"0.891 µM [falling, full curve, poor fit]",–
Cc1ccc(C(=O)C2=C(O)C(=O)N(Cc3ccccc3)C2c2cccnc2)o1 (centres undefined),–,"11.2 µM [rising, partial curve]"
Cc1cc(C(=O)NCCCn2ccnc2)sc1-c1ccccc1,–,"0.0794 µM [rising, full curve]"
N/C(=N\OC(=O)c1cc(Br)ccc1Cl)c1cccnc1,–,"11.2 µM [falling, partial curve, poor fit]"
CC(C)(C)NC(=O)CSc1ncnc2c1nnn2Cc1ccccc1Cl,–,"35.5 µM [falling, single point]"
O=C(CN1C(=O)C2C3C=CC(C3)C2C1=O)Nc1nc(SCc2ccc(Cl)cc2)n[nH]1 (centres undefined),–,"22.4 µM [rising, single point]"
O=C(Nc1nc(-c2ccc(-c3ccccc3)cc2)cs1)C1CCCO1 (centres undefined),–,"12.6 µM [rising, partial curve, poor fit]"
COc1ccc(-c2nc(Cn3c(SCc4ccccc4F)nc4cccnc43)c(C)o2)cc1,–,"35.5 µM [rising, partial curve, poor fit]"

# Four entries from above, sorted by SMILES length, low to high.
Structure (SMILES),AC50 [1],AC50 [2]
CCc1cccc(C)c1NC(=O)COC(=O)Cc1ccsc1,"3.55 µM [falling, full curve, poor fit]","2.51 µM [falling, full curve, poor fit]"
N/C(=N\OC(=O)c1cc(Br)ccc1Cl)c1cccnc1,–,"11.2 µM [falling, partial curve, poor fit]"
Cc1ccc(-n2nc(C)cc2Nc2ncc(Cl)cc2Cl)cc1,–,"31.6 µM [rising, single point]"
CCn1cc(C(=O)O)c(=O)c2cc(F)c(N3CCN(C(=S)NC(=O)c4ccc(Br)cc4)CC3)cc21,"0.891 µM [falling, full curve, poor fit]",–

# Source: PubChem BioAssay AID1487 (National Center for Advancing Translational Sciences (NCATS), 2009)
